Screen size: about 140,000 compounds; about 4,300 (3.1%) were called active. Inconclusive results, whose numbers are uncertain, are shown with a selection of clear calls.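 The calls were made as follows: active = readout at or below -70, meaning at least 70% loss of cells showing the perinucleolar compartment, a nuclear body marking cancer cells; inconclusive = readout between -30 and a set limit; inactive = the rest.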
assay: High Content Assay for Compounds that inhibit the Assembly of the Perinucleolar Compartment; settings: PC3M PTB-GFP, PNC prevalence imaging, 16 h; at 10 µM; hits give low values;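 also: plate controls were DMSO wells for no effect and camptothecin positive control wells for full effect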
Summary of the method: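 PC3M cells stably expressing PTB-GFP, 750–1000 cells/well, treated 16 h at 37 °C with compound (23 nl of library stock), in duplicate. After paraformaldehyde fixation and Hoechst stain, imaged at 20x; PNC prevalence scored by image analysis.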

Row | Structure (SMILES) | activity change (PNC), negative = inhibition
1 | COc1ccc(-c2nnc(SCC(=O)N3CCCCC3)o2)cc1OC | inconclusive: -34.7%
2 | O=C(CCCOc1ccc(Cl)cc1)N1CCOCC1 | inactive: 9.53%
3 | Cc1nn(-c2ccccc2)c(Cl)c1CN(C(=O)CCl)c1ccc(Cl)cc1 | inactive: 11.8%
4 | CCSc1sccc1C1C(C#N)=C(N)N(c2cccnc2)C2=C1C(=O)CC(C)(C)C2 (stereo unspecified) | inactive: -5.53%
5 | Cc1ccc(Cn2ccc(NC(=O)c3cc(CC(C)C)on3)n2)cc1 | inconclusive: -34.8%
6 | O=C(O)CSC(=S)N1CCCCC1 | inconclusive: -30.1%
7 | CCCOc1ccc(C(=O)c2nc3c(n2O)CCCC3)cc1 | inactive: 3.77%
8 | O=C(c1cc2ccccc2oc1=O)N1CCN(c2ncccn2)CC1 | inactive: -21.5%
9 | CCOC(=O)c1cnc(SC)nc1Oc1cccc(NS(=O)(=O)c2ccc(Cl)cc2)c1 | active: -100%
10 | CCCc1cc(-c2nc(-c3ccc(Cl)cc3)cs2)ccn1 | inconclusive: -45.3%
11 | O=C(CSc1cccs1)Nc1cccc2ccccc12 | inconclusive: -33.6%
12 | Cc1cc(C)n(-c2cccc3cccnc23)n1 | inconclusive: -30.2%
13 | COC(=O)c1cc(=O)nc2sc3cc(OC)ccc3n12 | inconclusive: -48.5%
14 | COC(=O)c1cc(-c2ccc(Br)cc2)on1 | inconclusive: -34.7%
15 | O=C(Nc1cccc(Cl)c1)NC1(C(=O)NCc2cccs2)CCCCC1 | inconclusive: -68.6%
16 | COc1ccc(-c2cc(C(F)(F)F)n3nc(C(=O)N4CCOCC4)nc3n2)cc1 | inconclusive: -39.1%
17 | O=C(Nc1ccccc1)C1CCCCC1 | inconclusive: -47.1%
18 | COc1ccc(OC)c(NC(=O)c2cc(-c3cc(Cl)ccc3O)n[nH]2)c1 | inactive: -15.6%
19 | CN(CCO)c1c2c(nc3cc(-c4cccc(F)c4)nn13)CCCC2 | inconclusive: -54.9%
20 | O=C1C(NS(=O)(=O)c2cccs2)=C(N2CCN(c3ccccc3)CC2)C(=O)c2ccccc21 | inconclusive: -49.8%
21 | O=C(CSc1nnnn1C1CCCC1)Nc1ccc2c(c1)OCO2 | inconclusive: -33.5%

By substructure: those above with fluorine
Row | Structure (SMILES) | activity change (PNC), negative = inhibition
16 | COc1ccc(-c2cc(C(F)(F)F)n3nc(C(=O)N4CCOCC4)nc3n2)cc1 | inconclusive: -39.1%
19 | CN(CCO)c1c2c(nc3cc(-c4cccc(F)c4)nn13)CCCC2 | inconclusive: -54.9%

Remaining list, next part.

Row | Structure (SMILES) | activity change (PNC), negative = inhibition
22 | C=CCn1c(SCC(=O)NCC(=O)OCC)nnc1-c1ccccn1 | inactive: -19%
23 | COc1ccc(C(=O)NCc2nnc(SCC(=O)N3CCc4ccccc43)n2Cc2ccccc2)cc1 | active: -100%
24 | O=C(CSc1nnc(-c2ccc3c(c2)OCCO3)o1)N1CCCC1 | inactive: -22.2%
25 | C(=N\C(/N=C/c1ccco1)c1ccco1)/c1ccco1 | inactive: 31.1%
26 | Cc1ccc(-n2c(C)n[nH]c2=S)cc1 | inactive: 29.1%
27 | COc1ccc(C2(O)CCN(C(=O)c3c(F)cccc3F)CC2)cc1 | inconclusive: -36.5%
28 | COC(=O)c1ccc(C)c(NC(=O)CCSc2ccccc2)c1 | inconclusive: -36.2%
29 | C=CCN1C(=O)C(Cc2ccc(OC)cc2)S/C1=N/N=C/c1ccco1 (stereo unspecified) | inactive: -24.3%
30 | CCC(NC(=O)Nc1ncccc1C)(C(F)(F)F)C(F)(F)F | inconclusive: -47.1%
31 | CC(Sc1nc(-c2ccc(F)cc2)cs1)C(=O)Nc1ccc(Cl)cn1 (stereo unspecified) | active: -100%
32 | CSc1nc(-c2ccccc2)nc(C(Cl)Cl)n1 | inconclusive: -57.3%
33 | COc1ccc2c(c1)CCc1c(C(=O)NCc3ccc(F)cc3)noc1-2 | inactive: 32.7%
34 | CCOC(=O)c1cc2cc(C)ccc2[nH]1 | inconclusive: -43.1%
35 | Cc1csc(NC(=O)c2ccc(C)c([N+](=O)[O-])c2)n1 | inactive: -17.1%
36 | Cn1c(-c2ccc(Br)o2)nc2cc(Br)ccc21 | inconclusive: -32.9%
37 | Cc1ccc(O)c(NC(=O)c2cccc(NC(=O)c3ccco3)c2)c1 | inconclusive: -30.9%
38 | Cc1ccccc1C(=O)N=c1c(C#N)cc2c(=O)n3cccc(C)c3nc2n1Cc1ccco1 | inconclusive: -34.1%
39 | O=C(NC(=S)Nc1ccc(S(=O)(=O)NC2CCCCC2)cc1)c1cccs1 | inconclusive: -49.2%
40 | CC(C)Oc1cccc(-c2cc(C(=O)N3CCN(c4ncccn4)CC3)c3ccccc3n2)c1 | inconclusive: -50.6%
41 | Cn1c(SCC(=O)N2CCCc3ccccc32)nc2ccccc2c1=O | inconclusive: -64.2%
42 | CCOC(=O)c1c(C)[nH]c(C2=NNC(=Nc3cccc(Cl)c3)SC2)c1C | inactive: -8.94%

In the list so far, two have a CF3 group:
Row | Structure (SMILES) | activity change (PNC), negative = inhibition
16 | COc1ccc(-c2cc(C(F)(F)F)n3nc(C(=O)N4CCOCC4)nc3n2)cc1 | inconclusive: -39.1%
30 | CCC(NC(=O)Nc1ncccc1C)(C(F)(F)F)C(F)(F)F | inconclusive: -47.1%

Going on with the list:

Row | Structure (SMILES) | activity change (PNC), negative = inhibition
43 | COc1cc(NC(=O)c2nnn(Cc3ccc(SC)cc3)c2N)cc(OC)c1 | inconclusive: -30.2%
44 | COc1ccc(N=CC2=C(O)c3ccccc3C2=O)cc1 | inconclusive: -38%
45 | Cn1nnnc1SCc1c(F)cccc1F | inactive: -10.4%
46 | O=C(O)C1CC=CCC1C(=O)NCCc1ccccc1 (stereo unspecified) | inconclusive: -45.8%
47 | CNC(=S)N/N=C/c1cn(CCOc2ccccc2OC)c2ccccc12 | inconclusive: -69.2%
48 | O=C(CSc1nnc(-c2cccnc2)n1-c1ccc(SC(F)F)cc1)N1CCCc2ccccc21 | inactive: 27.7%
49 | Cc1c(C(=O)Nc2ccc3c(c2)CCC3)cccc1[N+](=O)[O-] | active: -114%
50 | CCOC(=O)NC(NC(=S)Nc1ccc(OC)cc1)C(Cl)(Cl)Cl (stereo unspecified) | inactive: 5.3%
51 | COc1ccc2c(CC(=O)OCC(=O)c3ccc(F)cc3)coc2c1 | inconclusive: -30.1%
52 | CCCc1[nH]nc2c1C(c1cccnc1)C(C#N)=C(N)O2 (stereo unspecified) | inactive: -21.5%
53 | COc1ccccc1CC(=O)Nc1cccc2c1CCCC2 | inconclusive: -48.1%
54 | Cc1occc1C(=O)Nc1cc(=O)n(C)c(=O)n1C | inconclusive: -71.6%
55 | O=C(CNc1ccccc1)Nc1ccc(F)cc1 | inactive: 26.9%
56 | CCCn1c2ccccc2c2nnc(SCC(=O)Nc3ncccn3)nc21 | inconclusive: -45.4%
57 | Cc1nn(Cc2ccccc2)c(C)c1NC(=O)c1cc(-c2cccs2)on1 | inconclusive: -47.2%
58 | Cc1cccc(-c2c3c(=O)n(C)c(=O)n(C)c3cn2-c2ccccc2O)c1 | inconclusive: -76.9%
59 | CCNCCNC(=O)c1c(O)c2ccccc2n(CC)c1=O | inactive: 18%
60 | COc1ccc(CC2CCOC2=O)cc1 (stereo unspecified) | active: -127%
61 | Cc1cccc(NS(=O)(=O)c2ccc(NC(=O)CN(c3cc([N+](=O)[O-])ccc3C)S(C)(=O)=O)cc2)c1 | active: -113%
